According to US20100056611A1:

Tests used:
[1] = system: MDCK-CA IX cells; test: Binding of fluorescent CA inhibitor (FITC-CAI) to MDCK-CA IX cells; conditions: 48 h
[2] = target: CA IX (Homo sapiens, UniProt Q16790); conditions: read-out: KI value towards CA IX; cited from earlier work

## NS(=O)(=O)c1ccc(CNC(=S)Nc2ccc3c(c2)C(=O)OC32c3ccc(O)cc3Oc3cc(O)ccc32)cc1
[1]
  FITC-CAI binding to cells, hypoxia versus normoxia: bound only to hypoxic cells
[2]
  pKi: 7.62

pKi: −log10 of the molar value. The match of structure and compound is tentative.
